Measurements from publication PMC10235067, “Increased renal elimination of endogenous and synthetic pyrimidine nucleosides in concentrative nucleoside transporter 1 deficient mice” (Nature Communications, 2023).
Where “and” joins values, the source holds several entries; their conditions need not be identical. Identical values can stand only once. Residues, ends and D or L forms follow the SMILES beside them.

Key:
[1] = test system: CNT1; assay: Untargeted metabolomics of Slc28a1-/- vs Slc28a1+/+ mouse plasma (ad libitum); assay type: in vivo
[2] = test system: CNT1; assay: Untargeted metabolomics of Slc28a1-/- vs Slc28a1+/+ mouse urine (24 h, ad libitum); settings: for Fold Change / log2(FC): Slc28a1-/- / Slc28a1+/+; for change of level in Slc28a1-/- mouse urine (untargeted metabolomics): Slc28a1-/- vs Slc28a1+/+

| Compound | Fold Change [1] | log2(FC) [1] | Fold Change [2] | log2(FC) [2] | change of level in Slc28a1-/- mouse urine (untargeted metabolomics) [2] |
| --- | --- | --- | --- | --- | --- |
| 2,5-Diamino-4,5-diketopyrimidine | 1.2 and 1.2457 | 0.3 and 0.317 |  |  |  |
| CC(O)CCC(O)c1ccoc1 (stereo not drawn) [1,4-Ipomeadiol] | 3.7 and 3.7245 | 1.9 and 1.8971 |  |  |  |
| C1=CNc2ccccc2C=C1 [1-Benzazepine] | 1.2 and 1.1613 | 0.2 and 0.2157 |  |  |  |
| CCc1occ(O)c1O [2-Ethyl-3,4-dihydroxyfuran] | 1.3 and 1.3166 | 0.4 and 0.3969 |  |  |  |
| Cc1cc2ccccc2[nH]1 [2-Methylindole] | 1.2 and 1.1633 | 0.2 and 0.2183 |  |  |  |
| O=C(O)CCCCCCCCC(O)CC(=O)O (stereo not drawn) [3-Hydroxydodecanedioic acid] | 1.5 and 1.4754 | 0.6 and 0.5611 |  |  |  |
| O=C(O)CCCCCCCCCCC(O)CC(=O)O (stereo not drawn) [3-Hydroxytetradecanedioic acid] | 3.7 and 3.6668 | 1.9 and 1.8745 |  |  |  |
| CC(O)C(C)SC(C)C(C)S (stereo not drawn) [3-[(2-Mercapto-1-methylpropyl)thio]-2-butanol] | 0.6 and 0.647 | -0.6 and -0.6281 |  |  |  |
| O=C1C(=O)C2CCCCC2C1=O (stereo not drawn) [3a,4,5,6,7,7a-Hexahydroindene-1,2,3-trione] | 2.1 and 2.0548 | 1.0 and 1.039 |  |  |  |
| CCC=CCCC(=O)O [4-Heptenoic acid] | 3.8 and 3.8427 | 1.9 and 1.9421 |  |  |  |
| O=C(O)CCCCCCCCC(O)CCCCC(=O)O (stereo not drawn) [6-Hydroxypentadecanedioic acid] | 3.8 and 3.7968 | 1.9 and 1.9248 |  |  |  |
| NCCCCCCCC(=O)O [8-Aminooctanoic acid] | 0.6 and 0.6095 | -0.7 and -0.7143 |  |  |  |
| O=C(O)CCCC=C=CCO [8-Hydroxy-5,6-octadienoic acid] | 1.6 and 1.6327 | 0.7 and 0.7073 |  |  |  |
| CC(CCC1C(CO)=CC(=O)CC1(C)C)OC1O[C@H](CO)[C@@H](O)[C@H](O)[C@H]1O (stereo partly drawn) [9,13-Dihydroxy-4-megastigmen-3-one 9-glucoside] | 1.6 and 1.6359 | 0.7 and 0.71 |  |  |  |
| CCCCCCCCC=CCCCCCCCCCCCC(N)=O [13-Docosenamide] | 1.6 and 1.5663 | 0.6 and 0.6473 |  |  |  |
| CCCCCC[C@@H]([C@@H](C)O)n1cnc2c(N)ncnc21 [(2R,3S)-3-(6-Amino-9H-purin-9-yl)nonan-2-ol] | 1.6 and 1.6266 | 0.7 and 0.7018 |  |  |  |
| C[C@@H](O)CCC[C@@H](O)CCO [(3R,7R)-1,3,7-Octanetriol] | 1.2 and 1.1718 | 0.2 and 0.2287 |  |  |  |
| CC(=O)/C=C/[C@@]1(O)C(C)(C)C[C@H](O)C[C@@]1(C)O [(3S,5R,6R,7E)-3,5,6-Trihydroxy-7-megastigmen-9-one] | 1.7 and 1.7032 | 0.8 and 0.7682 |  |  |  |
| C/C=C/CC/C=C/C=O [(E,E)-2,6-Octadienal] | 3.6 and 3.6317 | 1.9 and 1.8606 |  |  |  |
| Nc1ncnc2c1ncn2[C@@H]1O[C@H](COP(=O)(O)O)[C@@H](O)[C@H]1O [Adenosine monophosphate] | 0.7 and 0.7016 | -0.5 and -0.5113 |  |  |  |
| C[C@]12C[C@H](O)[C@H]3[C@@H](CCC4=CC(=O)CC[C@@]43C)[C@@H]1CC[C@@H]2C(=O)CO [Corticosterone] |  | 0.6 and 0.6234 |  |  |  |
| O=C(O)[C@H]1CCCCN1 [D-Pipecolic acid] | 0.5 and 0.5213 | -0.9 and -0.9399 |  |  |  |

| Compound | Fold Change [1] | log2(FC) [1] | Fold Change [2] | log2(FC) [2] | change of level in Slc28a1-/- mouse urine (untargeted metabolomics) [2] |
| --- | --- | --- | --- | --- | --- |
| CC(C)[C@H](NC(=O)[C@@H](NC(=O)[C@@H](N)CCCCN)C(C)C)C(=O)N[C@H](C(=O)O)[C@@H](C)O [Dynorphin B (10-13)] (H-KVVT-OH) | 1.5 and 1.5114 | 0.6 and 0.5958 |  |  |  |
| CC(C)C[C@H](NC(=O)[C@@H](N)CCC(=O)O)C(=O)N[C@@H](CCCN=C(N)N)C(=O)O [Glutamylleucylarginine] (H-Glu-Leu-Arg-OH) | 1.9 and 1.9151 | 0.9 and 0.9375 |  |  |  |
| CCCCCC(=O)OC(CC(=O)O)C[N+](C)(C)C.[Cl-] (stereo not drawn) [Hexanoylcarnitine] | 0.7 and 0.6848 | -0.5 and -0.5463 |  |  |  |
| O=C(O)CNC(=O)c1ccccc1 [Hippuric acid] | 0.6 and 0.5802 | -0.8 and -0.7854 |  |  |  |
| O=C(O)C=Cc1c[nH]c2ccccc12 [Indoleacrylic acid] | 1.2 and 1.2118 | 0.3 and 0.2771 |  |  |  |
| C/C=C\C(=O)O [Isocrotonic acid] | 1.5 and 1.4875 | 0.6 and 0.5729 |  |  |  |
| CCCCC/C=C\C/C=C\C/C=C\CCCCC(=O)OC[C@@H](O)COP(=O)([O-])OCC[N+](C)(C)C [LysoPC(18:3(6Z,9Z,12Z)/0:0)] | 0.8 and 0.8475 | -0.2 and -0.2388 |  |  |  |
| CC/C=C\C/C=C\C/C=C\C/C=C\C/C=C\CCCC(=O)N[C@@H](CS)C(=O)O [N-Eicosapentaenoyl Cysteine] |  | 0.6 and 0.6176 |  |  |  |
| CCCCCCCCCCCCCCCC(=O)N[C@@H](CO)C(=O)O [N-Hexadecanoyl-serine] |  | -0.3 and -0.2983 |  |  |  |
| Cn1cccc1-c1cccnc1 [Nicotyrine] | 1.2 and 1.1873 | 0.2 and 0.2477 |  |  |  |
| CCCCCCCCOC(=O)c1cc(O)c(O)c(O)c1 [Octyl gallate] | 1.4 and 1.3585 | 0.4 and 0.442 |  |  |  |
| CC(C)(CO)[C@@H](O)C(=O)NCCC(=O)O [Pantothenic acid] | 1.5 and 1.4861 | 0.6 and 0.5715 |  |  |  |
| C[N+](C)(C)CC(CC(=O)[O-])OC(=O)CCCC=CC=CC=CCCCCC(=O)O (stereo not drawn) [Pentadeca-5,7,9-trienedioylcarnitine] | 0.8 and 0.8004 | -0.3 and -0.3211 |  |  |  |
| O=C(O)CCCCCCCCC(=O)O [Sebacic acid] |  | 0.9 and 0.8894 |  |  |  |
| Cc1c[nH]c(=O)[nH]c1=O [Thymine] |  |  | 2.0513 | 1.0365 |  |
| C/C=C(\C)C(=O)NCC(=O)O [Tiglylglycine] |  |  | 4E-01 and 0.3848 | -1.4 and -1.3777 |  |
| CC=CC=CC=CCCCCCC(=O)OC(CC(=O)[O-])C[N+](C)(C)C (stereo not drawn) [Trideca-7,9,11-trienoylcarnitine] |  |  | 15.173 | 3.9235 |  |
| NC(=O)CC(NC(=O)C(N)Cc1c[nH]c2ccccc12)C(=O)O (stereo not drawn) [Tryptophyl-Asparagine] (H-Trp-Asn-OH; configuration not given here) |  |  | 6E-02 and 0.06241 | -4.0 and -4.0022 |  |
| O=c1cc[nH]c(=O)[nH]1 [Uracil] |  |  | 2.0778 | 1.055 |  |
| CCCCC(=O)NCC(=O)O [Valerylglycine] |  |  | 0.5796 | -0.7869 |  |
| CC(C)[C@H](N)C(=O)N[C@@H](CCCN=C(N)N)C(=O)O [Valyl-Arginine] (H-Val-Arg-OH) |  |  | 1.9277 | 0.9469 |  |
| COc1cc(C(=O)NCC(=O)O)ccc1O [Vanilloylglycine] |  |  | 0.6175 | -0.6956 |  |

| Compound | Fold Change [1] | log2(FC) [1] | Fold Change [2] | log2(FC) [2] | change of level in Slc28a1-/- mouse urine (untargeted metabolomics) [2] |
| --- | --- | --- | --- | --- | --- |
| C[C@H](N)C(=O)NCC(=O)N[C@@H](Cc1c[nH]c2ccccc12)C(=O)N[C@@H](CS)C(=O)O [ala-gly-trp-cys] (H-AGWC-OH) |  |  | 0.3812 | -1.3914 |  |
| CC1C(=O)CC(CC(=O)O)C1(C)C (stereo not drawn) [alpha-Campholonic acid] | 1.9 and 1.8802 | 0.9 and 0.9109 |  |  |  |
| NCCCC[C@H](NC(=O)CNC(=O)[C@@H](N)CC(N)=O)C(=O)NCC(=O)O [asn-gly-lys-gly] (H-NGKG-OH) | 1.6 and 1.616 | 0.7 and 0.6924 |  |  |  |
| CC1=C(/C=C/C(C)=C/C=C/C(C)=C/C=C/C=C(\C)CCCO)C(C)(C)CC(O)C1 (stereo not drawn) [beta-Micropteroxanthin] |  |  | 19.067 | 4.253 |  |
| CC=CC(=O)OC(CC(=O)[O-])C[N+](C)(C)C (stereo not drawn) [butenoylcarnitine] |  |  | 1E-01 and 0.1471 | -2.8 and -2.7654 |  |
| O=C1C=CCCC1 [cyclohexenone] |  |  | 0.4903 | -1.0283 |  |
| Nc1ccn([C@@H]2O[C@H](CO)[C@@H](O)[C@H]2O)c(=O)n1 [cytidine] |  |  |  |  | no change |
| C[C@H](NC(=O)[C@@H](N)CCC(=O)O)C(=O)N[C@@H](CC(=O)O)C(=O)NCC(=O)O [glu-ala-asp-gly] (H-EADG-OH) |  |  | 1.8239 | 0.867 |  |
| CC(C)[C@H](NC(=O)[C@H](CS)NC(=O)CN)C(=O)N[C@@H](CCCCN)C(=O)O [gly-cys-val-lys] (H-GCVK-OH) |  |  | 0.3981 | -1.3288 |  |
| CC(Cc1ccccc1)Nc1ncnc2c1ncn2[C@@H]1O[C@H](CO)[C@@H](O)[C@H]1O (stereo partly drawn) [n6-phenylisopropyladenosine] |  |  | 2.3257 | 1.2176 |  |
| C[C@@H](O)[C@H](N)C(=O)N[C@H](C(=O)N[C@@H](CCCCN)C(=O)N[C@@H](CO)C(=O)O)[C@@H](C)O [thr-thr-lys-ser] (H-TTKS-OH) |  |  | 3.9891 | 1.9961 |  |
| O=c1ccn([C@@H]2O[C@H](CO)[C@@H](O)[C@H]2O)c(=O)[nH]1 [uridine] |  |  |  |  | no changes |
| CC1(O)C=CC(=O)CC1 (stereo not drawn) [xi-4-Hydroxy-4-methyl-2-cyclohexen-1-one] |  |  | 0.705 | -0.5042 |  |
| Chitobiose |  |  | 1.446 | 0.532 |  |
| Dodecenoylcarnitine |  |  | 7.667 | 2.9387 |  |
| Prostaglandin F-main urinary metabolite |  |  | 3E+03 and 2991.4 | 11.5 and 11.547 |  |
| Rivularine |  |  |  | -4.2 and -4.2176 |  |
| Tetrahydroaldosterone |  |  | 871.11 | 9.7667 |  |
| hydroxycortisol |  |  | 377.01 | 8.5584 |  |
| hydroxyvalerylglycine |  |  | 1E-01 and 0.14 | -2.8 and -2.836 |  |
| trihydroxyflavone |  |  | 0.1272 | -2.9749 |  |
